Reference: the supplement of paper PMC10398353
“And” between values parts separate entries of the source, which are not always exact repeats. Equal entries are not always repeated. Structures can show the parent of a compound that is named as a salt. The list shows a part of the results. Single values of this set are uncertain.

These compounds were tested on Salmonella enterica serovar Typhimurium ST313 D23580 (assay: normalized bacterial growth (OD600 20 h minus 0 h, interquartile-mean normalized) (fraction of plate interquartile mean); higher = more bacterial growth (less inhibition)). Conditions: LPM (pH 5.8, low phosphate, low Mg2+), concentration: 10 µM, temperature: 37 °C.

Row | SMILES | normalized bacterial growth
1 | C[C@@H]1O[C@@H](O[C@H]2C[C@@H](O)[C@]3(CO)[C@H]4[C@H](O)C[C@]5(C)[C@@H](C6=CC(=O)OC6)CC[C@]5(O)[C@@H]4CC[C@]3(O)C2)[C@H](O)[C@H](O)[C@H]1O [Strophantine octahydrate] | 1.1
2 | C[C@@H]1O[C@@H](O[C@H]2C[C@@H](O)[C@]3(CO)[C@H]4[C@H](O)C[C@]5(C)[C@@H](C6=CC(=O)OC6)CC[C@]5(O)[C@@H]4CC[C@]3(O)C2)[C@H](O)[C@H](O)[C@H]1O | 0.506 and 1
3 | Clc1cc(I)cc(Cl)c1NC1=NCCN1 [p-Iodoclonidine hydrochloride] | 0.693
4 | C[C@@H](N)Cc1cnc[nH]1 ["Histamine, R(-)-alpha-methyl-, dihydrochloride"] | 1.16
5 | COc1ccc2c3c([nH]c2c1)C(C)=NCC3 | 1.22
6 | COc1ccc2c3c([nH]c2c1)C(C)=NCC3 [Harmaline hydrochloride dihydrate] | 0.855
7 | CC1(C)C2C[C@@H](O)[C@]3(C)C(CC[C@@]4(C)[C@H](c5ccoc5)OC(=O)[C@H]5O[C@]543)[C@@]2(C)[C@@H](O)C[C@H]1O (stereo partly drawn) | 0.927
8 | [N-]=[N+]=CC(=O)OC[C@H](N)C(=O)O | 0.684
9 | Cc1cc(O)c2c(=O)c3c(O)cc(O)c4c5c(O)cc(O)c6c(=O)c7c(O)cc(C)c8c1c2c(c34)c(c78)c65 | 1.41
10 | CN(C)C(=O)Oc1cc(OC(=O)N(C)C)cc(C(O)CNC(C)(C)C)c1 (stereo not drawn) | 0.871
11 | CN(C(=O)Cc1ccc(Cl)c(Cl)c1)C(CN1CCCC1)c1cccc(OCC(=O)O)c1 (stereo not drawn) ["ICI 204,448 hydrochloride"] | 0.981
12 | C=C(C)[C@@]12O[C@@]3(c4ccccc4)O[C@@H]1[C@@H]1[C@@H]4O[C@]4(CO)[C@@H](O)[C@]4(O)C(=O)C(C)=C[C@H]4[C@@]1(O3)[C@H](C)[C@H]2OC(=O)/C=C/C=C/c1ccccc1 | 0.669
13 | NCCc1ccc(O)cc1 | 0.97
14 | NCCc1ccc(O)cc1 [4-Hydroxyphenethylamine hydrochloride] | 1.32
15 | C[N+]1(C)[C@@H]2C[C@@H](OC(=O)[C@H](CO)c3ccccc3)C[C@H]1[C@@H]1O[C@@H]12 [(-)-Scopolamine methyl bromide] | 1.13
16 | C[N+]1(C)[C@@H]2C[C@@H](OC(=O)[C@H](CO)c3ccccc3)C[C@H]1[C@@H]1O[C@@H]12 | 0.892
17 | C[C@]12CC[C@H](O)C[C@@H]1CC[C@@H]1[C@@H]2CC[C@]2(C)C(=O)CC[C@@H]12 | 0.829
18 | C[C@]12CC[C@H](O)C[C@@H]1CC[C@@H]1[C@@H]2CC[C@]2(C)C(=O)CC[C@@H]12 [Epiandrosterone] | 0.9

Some of the entries above in another layout:
Row,SMILES,normalized bacterial growth
14,NCCc1ccc(O)cc1 [4-Hydroxyphenethylamine hydrochloride],1.32
15,C[N+]1(C)[C@@H]2C[C@@H](OC(=O)[C@H](CO)c3ccccc3)C[C@H]1[C@@H]1O[C@@H]12 [(-)-Scopolamine methyl bromide],1.13
16,C[N+]1(C)[C@@H]2C[C@@H](OC(=O)[C@H](CO)c3ccccc3)C[C@H]1[C@@H]1O[C@@H]12,0.892
